Data as given in patent US7951962B2, “Organic semiconductor compound, organic semiconductor thin film, organic semiconductor coating liquid, organic thin film transistor, methods for producing bis(benzo[4,5] thieno)[2,3-B:3′2′-E][1,4]dithin and bis(benzo [4,5]thieno)[2,3-B:2′3′-E][1,4]dithiin” (Seiko Epson Corporation, priority 2006, dated 2011).

How the values were obtained:
[1] = Transfer characteristics of organic field effect transistor (example 2, monocrystal); details: VD −50V
Description: In an example 2, the organic thin film transistor was manufactured using the anti-type bis(benzo[4,5]thieno)[2,3-b: 2′3′-e][1,4]dithiin to evaluate the characteristics of the thin film transistor. Hereinafter, a method for manufacturing the thin film transistor of the example 2 will be described with reference to the drawings concerned.
In the example 2, first, a monocrystal was produced to be used as the organic semiconductor thin film 17. As an exemplary method, the so-called physical vapor transport method was used to produce the monocrystal made of the anti-type bis(benzo[4,5]thieno)[2,3-b: 2′3′-e][1,4]dithiin.
FIG. 4 illustrates the physical vapor transport method. […] Next, on the higher-temperature side was placed a powdery organic semiconductor material 7 such as the anti-type bis(benzo[4,5]thieno)[2,3-b: 2′3′-e][1,4]dithiin. Temperature was adjusted such that the anti-type bis(benzo[4,5]thieno)[2,3-b: 2′3′-e][1,4]dithiin was gradually sublimed to be crystallized on a low-temperature portion of a lower stream side thereof. Furthermore, an obtained crystal 8 was placed again on the upper stream side to be repeatedly recrystallized a couple of times (e.g. three times), whereby a high-grade organic semiconductor crystal could be produced. In this manner, a flat-surface and normal monocrystal of the anti-type bis(benzo[4,5]thieno)[2,3-b: 2′3′-e][1,4]dithiin was obtained.
A region having conductivity due to the doped impurity was used as the gate electrode 12. […] Next, a surface of the conductive silicon wafer was oxidized to form the gate insulation film 13 made of silicon oxide with a thickness of approximately 500 nm. Then, on the gate insulation film 13 was deposited a gold layer having a thickness of approximately 10 nm by vacuum vapor deposition. After that, patterning of the layer was performed by etching and lithography to form the source electrode 14 and the drain electrode 15. The distance between the electrodes 14 and 15 was set to be, for example, approximately 5 μm. […]

[2] = Characteristics of bottom-gate organic thin film transistor (example 1, vacuum vapor deposited thin film)
Description: In an example 1 below, the organic thin film transistor was manufactured using the syn-type bis(benzo[4,5]thieno)[2,3-b: 3′2′-e][1,4]dithiin to evaluate characteristics thereof. A description will be given of a method for manufacturing the thin film transistor of the example 1 with reference to FIGS. 2A through 3.
The substrate 11 shown in FIG. 2A is a monocrystal silicon substrate (silicon wafer) having an impurity-doped region. The region that was conductively doped with an impurity was used as the gate electrode 12.
Next, patterns of the source electrode 14 and the drain electrode 15 made of gold (Au) were formed by a vacuum deposition method and lithography. A distance (channel length) between both electrodes 14 and 15 was set to be 50 μm.
The organic semiconductor thin film 17 was 100 nm in thickness.
Characteristics of the bottom-gate type organic thin film transistor (gate electrode: n-type silicon; channel length L: 50 μm; and channel width W: 2 mm) obtained by the above method were measured in a vacuum. Measurements were performed for both p- and n-channel conditions.
In FIG. 3, the vertical axis on the left is a linear vertical axis and the vertical axis on the right is a logarithmic vertical axis.

SMILES | mobility μ of the device ([1]; monocrystal bonded on modifying film, electrode distance approximately 5 μm, calculated from FIG. 6) | semiconductor characteristics (conductivity σ versus VG) ([1]; monocrystal, FIG. 6) | threshold voltage Vth ([1]; monocrystal, calculated from FIG. 6) | ON/OFF ratio of the device ([2]; VD −5V, logarithmic plotting of FIG. 3) | semiconductor characteristics, n-channel condition ([2]; measurements for the n-channel condition) | semiconductor characteristics (ID versus VG) ([2]; p-channel condition, VD −5V, FIG. 3) | threshold voltage Vth ([2]; thin film 100 nm by vacuum vapor deposition, VD −5V, measured in a vacuum, p-channel, linear plotting of FIG. 3) | mobility μ ([2]; thin film 100 nm by vacuum vapor deposition, channel length 50 μm, width 2 mm, VD −5V, measured in a vacuum, p-channel, linear plotting of FIG. 3)
c1ccc2c3c(sc2c1)Sc1c(sc2ccccc12)S3 [bis(benzo[4,5]thieno)[2,3-b: 2′3′-e][1,4]dithiin] | 3.0×10^−3 cm^2/Vs | p-type semiconductor characteristics with a negative threshold voltage | approximately −20 V |  |  |  |  | 
c1ccc2c3c(sc2c1)Sc1sc2ccccc2c1S3 [bis(benzo[4,5]thieno)[2,3-b: 3′2′-e][1,4]dithiin] |  |  |  | approximately 105 | no semiconductor characteristics were observed | p-type semiconductor characteristics with a negative threshold voltage | −60.5 V | 5.0×10^−3 cm^2/Vs
